Test results as given in US20210269772.

Sequences of proteins named here, by UniProt entry; tags and fusion partners are left off. Residues count along the entry.
UniProt P01732, 22-235: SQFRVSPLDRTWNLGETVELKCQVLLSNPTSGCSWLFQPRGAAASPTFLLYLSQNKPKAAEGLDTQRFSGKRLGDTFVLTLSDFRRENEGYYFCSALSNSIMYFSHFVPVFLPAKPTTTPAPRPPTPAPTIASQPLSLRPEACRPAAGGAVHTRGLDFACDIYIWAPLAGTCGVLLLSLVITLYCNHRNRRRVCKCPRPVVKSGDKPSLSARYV
UniProt F7DXK3, entry or part of it: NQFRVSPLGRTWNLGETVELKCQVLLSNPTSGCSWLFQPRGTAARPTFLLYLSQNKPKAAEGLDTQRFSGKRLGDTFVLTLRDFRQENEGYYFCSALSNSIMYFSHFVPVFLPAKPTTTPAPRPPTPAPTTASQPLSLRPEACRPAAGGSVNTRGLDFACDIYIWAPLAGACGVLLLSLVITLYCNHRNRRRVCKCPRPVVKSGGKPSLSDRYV
UniProt P01731, 28-247: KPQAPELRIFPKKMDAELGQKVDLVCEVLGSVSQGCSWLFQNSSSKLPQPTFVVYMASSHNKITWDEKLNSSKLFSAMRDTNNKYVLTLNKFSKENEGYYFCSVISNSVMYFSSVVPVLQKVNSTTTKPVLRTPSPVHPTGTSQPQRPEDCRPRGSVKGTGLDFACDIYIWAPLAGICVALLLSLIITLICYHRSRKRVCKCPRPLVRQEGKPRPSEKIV

Columns and labels:
[1] = molecular target: CD8 alpha (CD8a) transiently expressed on CD8- Jurkat cells (Homo sapiens) (UniProt P01732); assay: flow cytometry; settings: 10 nM; binding specific to GFP+ cells; protein on the cell surface; protein details: CD8a-hnRNP-M-EGFP plasmid, Addgene 86054; label: 5'-FAM (cells), biotin (BLI); single-stranded DNA
[2] = molecular target: CD8 on CD3+CD8+ rhesus macaque PBMC (Macaca mulatta) (UniProt F7DXK3); assay: flow cytometry; settings: 50 nM; protein on the cell surface; label: 5'-FAM (cells), biotin (BLI); single-stranded DNA
[3] = molecular target: CD8 on CD3+CD8+ murine spleen T cells (Mus musculus) (UniProt P01731); assay: flow cytometry; settings: 50 nM; protein on the cell surface; label: 5'-FAM (cells), biotin (BLI); single-stranded DNA
[4] = molecular target: CD8 alpha (CD8a) on CD8+ T cells / PBMC (Homo sapiens) (UniProt P01732); assay: competition with a labelled probe; settings: 10 nM aptamer outcompeted by anti-CD8a RPA-T8 but not by anti-CD3; protein on the cell surface; label: 5'-FAM (cells), biotin (BLI); single-stranded DNA
[5] = molecular target: CD8 alpha (CD8a) on CD8+ T cells / PBMC (Homo sapiens) (UniProt P01732); assay: flow cytometry; settings: protein on the cell surface, single-stranded DNA

Sequence	binding result [1]	binding result [2]	binding result [3]	binding result [4]	binding result ([5]; iSp18 spacer, 5 nM on CD8+ T cells, released 90% by 100-fold complementary reversal agent SEQ 7, 10 min RT, label: 5'-biotin, variant of A3)	binding result ([5]; 3' iSp18 spacer, low binding in its published buffer conditions, compared with A3 / A3t, label: 3'-biotin)
ATCCAGAGTGACGCAGCAACAGAGGTGTAGAAGTACACGTGAACAAGCTTGAAATTGTCTCTGACAGAGGTGGACACGGTGGCTTAGT [A3]	binds	binds	no binding	binds	–	–
ATCCAGAGTGACGCAGCACGCAGCACCCGTGGTAGTGTATCAGGGAGACACTACGTGATGCAGCTTGAAATGGACACGGTGGCTTAGT [A1]	binds	binds	no binding	binds	–	–
CCAGAGTGACGCAGCAACAGAGGTGTAGAAGTACACGTGAACAAGCTTGAAATTGTCTCTGACAGAGGTGGACACGGTGGCTTTTAGT [A3t]	–	–	–	–	binds	–
ATCCAGAGTGACGCAGCAGCTCGATCGTATAGCCGTGACGCAGCTTGAAATGGGATCGCGTCCACAGTTTTGGACACGGTGGCTTAGT [A8]	binds	binds	no binding	binds	–	–
CTACAGCTTGCTATGCTCCCCTTGGGGTA [CD8Ap17s]	–	–	–	–	–	binds more weakly

Results from cells or extracts need not show a direct contact. For some assays here: No signal at the amounts used counts as a negative. For some assays here: The comparison behind a weaker result is the experiment's own reference, which may not be listed here. For some assays here: The exact form of at least one protein or probe is not confirmed.
